Experimental data reported in the supplement of paper PMC8612539.
≈ marks a conversion by molar mass, not a printed value. This continues a long series; more values of the same kind are listed elsewhere.

Test system: Escherichia coli
Test: minimum inhibitory concentration (MIC)
Method: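 Broth microdilution MIC (Sensititre BOPO7F bovine plate, CLSI methods) of 19 antimicrobials against field isolates of P. multocida, M. haemolytica, H. somni (deep nasopharyngeal swabs) and E. coli, Enterococcus spp. (rectal swabs) from weaned dairy heifers. Incubation 16-24 h at 35 C. MIC is the lowest concentration preventing visible growth. Values with <= or > lie at the tested range limits. Trimethoprim-sulfamethoxazole is given as the trimethoprim component of a 1:19 mixture.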

C=C[C@]1(C)C[C@@H](OC(=O)CSCCN(CC)CC)[C@]2(C)[C@H](C)CC[C@]3(CCC(=O)[C@H]32)[C@@H](C)[C@@H]1O [Tiamulin]
Details	minimum inhibitory concentration [µg/mL]
isolate (source animal id): 1	> 32
isolate (source animal id): 2	> 32
isolate (source animal id): 3	> 32
isolate (source animal id): 4	> 32
isolate (source animal id): 5	> 32
isolate (source animal id): 6	> 32
isolate (source animal id): 7	> 32
isolate (source animal id): 17	> 32
isolate (source animal id): 18	> 32
isolate (source animal id): 19	> 32
isolate (source animal id): 20	> 32
isolate (source animal id): 21	> 32
isolate (source animal id): 22	> 32
isolate (source animal id): 23	> 32
isolate (source animal id): 24	> 32
isolate (source animal id): 25	> 32
isolate (source animal id): 26	> 32
isolate (source animal id): 27	> 32
isolate (source animal id): 28	> 32
isolate (source animal id): 29	> 32
isolate (source animal id): 30	> 32
isolate (source animal id): 31	> 32
isolate (source animal id): 32	> 32
isolate (source animal id): 33	> 32
isolate (source animal id): 34	32 (≈ 64.8 µM)
isolate (source animal id): 35	> 32
isolate (source animal id): 36	> 32
isolate (source animal id): 37	> 32
isolate (source animal id): 38	> 32
isolate (source animal id): 39	> 32
isolate (source animal id): 40	32 (≈ 64.8 µM)
isolate (source animal id): 41	> 32
isolate (source animal id): 42	> 32
isolate (source animal id): 43	32 (≈ 64.8 µM)
isolate (source animal id): 44	> 32
isolate (source animal id): 45	> 32
isolate (source animal id): 46	32 (≈ 64.8 µM)
isolate (source animal id): 47	> 32
isolate (source animal id): 48	> 32
isolate (source animal id): 49	> 32
isolate (source animal id): 50	> 32
isolate (source animal id): 51	> 32
isolate (source animal id): 52	> 32
isolate (source animal id): 53	> 32
isolate (source animal id): 54	16 (≈ 32.4 µM)
isolate (source animal id): 55	> 32
isolate (source animal id): 56	> 32
isolate (source animal id): 57	> 32
isolate (source animal id): 58	> 32
isolate (source animal id): 59	> 32
isolate (source animal id): 60	32 (≈ 64.8 µM)
isolate (source animal id): 61	> 32
isolate (source animal id): 62	> 32
isolate (source animal id): 63	> 32
isolate (source animal id): 64	> 32
isolate (source animal id): 65	> 32
isolate (source animal id): 66	> 32
isolate (source animal id): 67	32 (≈ 64.8 µM)
isolate (source animal id): 68	> 32
isolate (source animal id): 69	> 32
isolate (source animal id): 70	> 32
isolate (source animal id): 71	> 32
isolate (source animal id): 72	> 32
isolate (source animal id): 73	> 32
isolate (source animal id): 74	> 32
isolate (source animal id): 75	> 32
isolate (source animal id): 76	> 32
isolate (source animal id): 77	> 32
isolate (source animal id): 78	> 32
isolate (source animal id): 79	> 32
isolate (source animal id): 80	> 32
isolate (source animal id): 81	> 32
isolate (source animal id): 82	> 32
isolate (source animal id): 83	> 32
isolate (source animal id): 84	> 32
isolate (source animal id): 85	> 32
isolate (source animal id): 86	> 32
isolate (source animal id): 87	32 (≈ 64.8 µM)
isolate (source animal id): 88	> 32
isolate (source animal id): 89	> 32
isolate (source animal id): 90	> 32
isolate (source animal id): 91	> 32
isolate (source animal id): 92	> 32
isolate (source animal id): 93	> 32
isolate (source animal id): 94	> 32
isolate (source animal id): 95	32 (≈ 64.8 µM)
isolate (source animal id): 96	> 32
isolate (source animal id): 97	> 32
isolate (source animal id): 189	32 (≈ 64.8 µM)
isolate (source animal id): 190	> 32
isolate (source animal id): 191	> 32
isolate (source animal id): 192	> 32
isolate (source animal id): 193	32 (≈ 64.8 µM)
isolate (source animal id): 194	> 32
isolate (source animal id): 195	> 32
isolate (source animal id): 196	> 32
isolate (source animal id): 197	> 32
isolate (source animal id): 198	32 (≈ 64.8 µM)
isolate (source animal id): 199	> 32
isolate (source animal id): 200	> 32
isolate (source animal id): 201	> 32
isolate (source animal id): 202	> 32
isolate (source animal id): 203	> 32
isolate (source animal id): 204	> 32
isolate (source animal id): 205	> 32
isolate (source animal id): 206	> 32
isolate (source animal id): 207	32 (≈ 64.8 µM)
isolate (source animal id): 208	32 (≈ 64.8 µM)
isolate (source animal id): 209	> 32
isolate (source animal id): 210	> 32
isolate (source animal id): 211	32 (≈ 64.8 µM)
isolate (source animal id): 212	32 (≈ 64.8 µM)
isolate (source animal id): 213	> 32
isolate (source animal id): 214	32 (≈ 64.8 µM)
isolate (source animal id): 215	> 32
isolate (source animal id): 216	> 32
isolate (source animal id): 217	16 (≈ 32.4 µM)
isolate (source animal id): 218	> 32
isolate (source animal id): 219	> 32
isolate (source animal id): 220	> 32
isolate (source animal id): 221	> 32
isolate (source animal id): 222	32 (≈ 64.8 µM)
isolate (source animal id): 223	32 (≈ 64.8 µM)
isolate (source animal id): 224	> 32
isolate (source animal id): 225	> 32
isolate (source animal id): 226	> 32
isolate (source animal id): 227	32 (≈ 64.8 µM)
isolate (source animal id): 228	16 (≈ 32.4 µM)
isolate (source animal id): 229	> 32
isolate (source animal id): 230	> 32
isolate (source animal id): 231	> 32
isolate (source animal id): 232	> 32
isolate (source animal id): 233	> 32
isolate (source animal id): 234	> 32
isolate (source animal id): 235	> 32
isolate (source animal id): 236	> 32
isolate (source animal id): 237	> 32
isolate (source animal id): 238	> 32
isolate (source animal id): 239	> 32
isolate (source animal id): 240	> 32
isolate (source animal id): 241	> 32
isolate (source animal id): 242	> 32
isolate (source animal id): 243	> 32
isolate (source animal id): 244	> 32
isolate (source animal id): 245	> 32
isolate (source animal id): 246	> 32
isolate (source animal id): 247	16 (≈ 32.4 µM)
isolate (source animal id): 248	> 32
isolate (source animal id): 249	> 32
isolate (source animal id): 250	> 32
isolate (source animal id): 251	> 32
isolate (source animal id): 252	> 32
isolate (source animal id): 253	> 32
isolate (source animal id): 254	> 32
isolate (source animal id): 255	> 32
isolate (source animal id): 256	> 32
isolate (source animal id): 257	> 32
isolate (source animal id): 258	> 32
isolate (source animal id): 259	> 32
isolate (source animal id): 260	> 32
isolate (source animal id): 261	> 32
isolate (source animal id): 262	> 32
isolate (source animal id): 263	> 32
isolate (source animal id): 264	> 32
isolate (source animal id): 265	> 32
isolate (source animal id): 266	32 (≈ 64.8 µM)
isolate (source animal id): 267	32 (≈ 64.8 µM)
isolate (source animal id): 268	> 32
isolate (source animal id): 269	> 32
isolate (source animal id): 270	> 32
isolate (source animal id): 271	32 (≈ 64.8 µM)
isolate (source animal id): 272	> 32
isolate (source animal id): 273	> 32
isolate (source animal id): 274	> 32
isolate (source animal id): 275	> 32
isolate (source animal id): 276	> 32
isolate (source animal id): 277	> 32
isolate (source animal id): 278	> 32
isolate (source animal id): 279	> 32
isolate (source animal id): 280	> 32
isolate (source animal id): 281	> 32
isolate (source animal id): 282	> 32
isolate (source animal id): 283	> 32
isolate (source animal id): 284	> 32
isolate (source animal id): 285	32 (≈ 64.8 µM)
isolate (source animal id): 286	> 32
isolate (source animal id): 287	> 32
isolate (source animal id): 288	> 32
isolate (source animal id): 289	> 32
isolate (source animal id): 290	> 32
isolate (source animal id): 291	> 32
isolate (source animal id): 292	> 32
isolate (source animal id): 293	> 32
isolate (source animal id): 294	16 (≈ 32.4 µM)
isolate (source animal id): 295	> 32
isolate (source animal id): 296	32 (≈ 64.8 µM)
isolate (source animal id): 297	> 32
isolate (source animal id): 298	> 32
isolate (source animal id): 299	> 32
isolate (source animal id): 300	32 (≈ 64.8 µM)
isolate (source animal id): 301	> 32
isolate (source animal id): 302	32 (≈ 64.8 µM)
isolate (source animal id): 303	> 32
isolate (source animal id): 304	> 32
isolate (source animal id): 305	> 32
isolate (source animal id): 306	> 32
isolate (source animal id): 307	32 (≈ 64.8 µM)
isolate (source animal id): 308	> 32
isolate (source animal id): 309	> 32
isolate (source animal id): 310	> 32
isolate (source animal id): 311	> 32
isolate (source animal id): 312	32 (≈ 64.8 µM)
isolate (source animal id): 313	> 32
isolate (source animal id): 314	32 (≈ 64.8 µM)
isolate (source animal id): 315	> 32
isolate (source animal id): 316	> 32
isolate (source animal id): 317	16 (≈ 32.4 µM)
isolate (source animal id): 318	32 (≈ 64.8 µM)
isolate (source animal id): 319	32 (≈ 64.8 µM)
isolate (source animal id): 320	> 32
isolate (source animal id): 321	> 32
isolate (source animal id): 322	> 32
isolate (source animal id): 323	> 32
isolate (source animal id): 324	> 32
isolate (source animal id): 325	> 32
isolate (source animal id): 326	> 32
isolate (source animal id): 327	32 (≈ 64.8 µM)
isolate (source animal id): 328	> 32
isolate (source animal id): 329	> 32
isolate (source animal id): 330	> 32
isolate (source animal id): 331	> 32
isolate (source animal id): 332	> 32
isolate (source animal id): 333	> 32
isolate (source animal id): 334	> 32
isolate (source animal id): 335	> 32
isolate (source animal id): 336	> 32
isolate (source animal id): 337	> 32
isolate (source animal id): 338	> 32
isolate (source animal id): 339	32 (≈ 64.8 µM)
isolate (source animal id): 340	> 32
isolate (source animal id): 341	> 32
